Laboratory results from the supplement of paper PMC12819154, “High-throughput peptide-centric local stability assay extends protein–ligand identification to membrane proteins, tissues and bacteria” (Nature Structural & Molecular Biology, 2025).
This is one part of the list. Most values lie at the level of the controls, where differences are scatter.

By UniProt entry, the sequences of proteins in these tests, tags left out. Where a name states a change or a piece, a line headed by the entry shows the natural chain unless it says otherwise.
UniProt Q92613: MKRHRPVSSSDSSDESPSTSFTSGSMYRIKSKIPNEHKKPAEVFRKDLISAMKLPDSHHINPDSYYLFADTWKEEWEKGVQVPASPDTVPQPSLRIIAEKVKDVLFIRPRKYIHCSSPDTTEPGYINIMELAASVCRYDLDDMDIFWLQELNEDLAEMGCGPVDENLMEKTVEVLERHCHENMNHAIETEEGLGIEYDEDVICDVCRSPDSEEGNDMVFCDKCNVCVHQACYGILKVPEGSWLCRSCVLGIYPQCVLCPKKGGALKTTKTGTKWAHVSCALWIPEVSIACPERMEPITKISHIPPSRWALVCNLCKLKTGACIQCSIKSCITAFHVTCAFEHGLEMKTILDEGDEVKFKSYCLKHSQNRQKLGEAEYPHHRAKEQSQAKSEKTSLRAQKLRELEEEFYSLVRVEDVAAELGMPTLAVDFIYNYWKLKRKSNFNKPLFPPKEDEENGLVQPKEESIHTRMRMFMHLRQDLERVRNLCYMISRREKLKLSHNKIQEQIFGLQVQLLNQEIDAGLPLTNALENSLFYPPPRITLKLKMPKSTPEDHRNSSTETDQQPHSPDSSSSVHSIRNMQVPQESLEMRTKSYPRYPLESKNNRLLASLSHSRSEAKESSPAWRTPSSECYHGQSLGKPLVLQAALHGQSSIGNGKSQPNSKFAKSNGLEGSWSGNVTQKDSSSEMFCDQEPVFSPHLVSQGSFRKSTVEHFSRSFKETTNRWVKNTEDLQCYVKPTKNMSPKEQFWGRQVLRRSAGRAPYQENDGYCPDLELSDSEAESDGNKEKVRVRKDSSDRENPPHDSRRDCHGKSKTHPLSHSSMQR
UniProt Q8WUA7: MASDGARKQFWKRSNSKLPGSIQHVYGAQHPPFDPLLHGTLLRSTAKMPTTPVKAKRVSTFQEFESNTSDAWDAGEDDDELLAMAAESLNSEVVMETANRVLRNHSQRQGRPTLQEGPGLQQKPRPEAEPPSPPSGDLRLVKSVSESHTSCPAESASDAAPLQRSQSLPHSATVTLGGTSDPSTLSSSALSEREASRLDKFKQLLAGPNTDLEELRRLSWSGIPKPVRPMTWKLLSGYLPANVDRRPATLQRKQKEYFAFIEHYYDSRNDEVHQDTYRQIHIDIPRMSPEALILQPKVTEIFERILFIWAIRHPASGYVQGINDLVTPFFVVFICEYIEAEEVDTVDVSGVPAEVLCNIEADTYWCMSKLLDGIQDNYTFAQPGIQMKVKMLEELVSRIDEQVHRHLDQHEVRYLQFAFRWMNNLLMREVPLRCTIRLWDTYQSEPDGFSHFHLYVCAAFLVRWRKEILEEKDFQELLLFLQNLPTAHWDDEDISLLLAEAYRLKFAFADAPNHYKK
UniProt Q8TF32: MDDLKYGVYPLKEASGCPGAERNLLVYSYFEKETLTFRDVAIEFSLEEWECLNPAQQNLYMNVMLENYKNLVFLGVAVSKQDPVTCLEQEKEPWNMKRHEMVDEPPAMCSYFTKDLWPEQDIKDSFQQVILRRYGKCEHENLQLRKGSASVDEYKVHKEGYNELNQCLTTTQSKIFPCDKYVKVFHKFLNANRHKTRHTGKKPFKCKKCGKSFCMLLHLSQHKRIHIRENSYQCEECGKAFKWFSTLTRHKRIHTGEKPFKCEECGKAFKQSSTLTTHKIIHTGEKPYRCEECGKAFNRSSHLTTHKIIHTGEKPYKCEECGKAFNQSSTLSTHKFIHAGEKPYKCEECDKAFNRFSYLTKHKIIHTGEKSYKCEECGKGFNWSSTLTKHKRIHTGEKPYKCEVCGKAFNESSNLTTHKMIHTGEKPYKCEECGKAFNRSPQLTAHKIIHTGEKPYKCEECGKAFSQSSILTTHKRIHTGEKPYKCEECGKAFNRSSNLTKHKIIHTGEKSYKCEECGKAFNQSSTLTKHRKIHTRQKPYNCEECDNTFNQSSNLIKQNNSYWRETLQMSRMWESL
UniProt Q8WYB5, whole entry: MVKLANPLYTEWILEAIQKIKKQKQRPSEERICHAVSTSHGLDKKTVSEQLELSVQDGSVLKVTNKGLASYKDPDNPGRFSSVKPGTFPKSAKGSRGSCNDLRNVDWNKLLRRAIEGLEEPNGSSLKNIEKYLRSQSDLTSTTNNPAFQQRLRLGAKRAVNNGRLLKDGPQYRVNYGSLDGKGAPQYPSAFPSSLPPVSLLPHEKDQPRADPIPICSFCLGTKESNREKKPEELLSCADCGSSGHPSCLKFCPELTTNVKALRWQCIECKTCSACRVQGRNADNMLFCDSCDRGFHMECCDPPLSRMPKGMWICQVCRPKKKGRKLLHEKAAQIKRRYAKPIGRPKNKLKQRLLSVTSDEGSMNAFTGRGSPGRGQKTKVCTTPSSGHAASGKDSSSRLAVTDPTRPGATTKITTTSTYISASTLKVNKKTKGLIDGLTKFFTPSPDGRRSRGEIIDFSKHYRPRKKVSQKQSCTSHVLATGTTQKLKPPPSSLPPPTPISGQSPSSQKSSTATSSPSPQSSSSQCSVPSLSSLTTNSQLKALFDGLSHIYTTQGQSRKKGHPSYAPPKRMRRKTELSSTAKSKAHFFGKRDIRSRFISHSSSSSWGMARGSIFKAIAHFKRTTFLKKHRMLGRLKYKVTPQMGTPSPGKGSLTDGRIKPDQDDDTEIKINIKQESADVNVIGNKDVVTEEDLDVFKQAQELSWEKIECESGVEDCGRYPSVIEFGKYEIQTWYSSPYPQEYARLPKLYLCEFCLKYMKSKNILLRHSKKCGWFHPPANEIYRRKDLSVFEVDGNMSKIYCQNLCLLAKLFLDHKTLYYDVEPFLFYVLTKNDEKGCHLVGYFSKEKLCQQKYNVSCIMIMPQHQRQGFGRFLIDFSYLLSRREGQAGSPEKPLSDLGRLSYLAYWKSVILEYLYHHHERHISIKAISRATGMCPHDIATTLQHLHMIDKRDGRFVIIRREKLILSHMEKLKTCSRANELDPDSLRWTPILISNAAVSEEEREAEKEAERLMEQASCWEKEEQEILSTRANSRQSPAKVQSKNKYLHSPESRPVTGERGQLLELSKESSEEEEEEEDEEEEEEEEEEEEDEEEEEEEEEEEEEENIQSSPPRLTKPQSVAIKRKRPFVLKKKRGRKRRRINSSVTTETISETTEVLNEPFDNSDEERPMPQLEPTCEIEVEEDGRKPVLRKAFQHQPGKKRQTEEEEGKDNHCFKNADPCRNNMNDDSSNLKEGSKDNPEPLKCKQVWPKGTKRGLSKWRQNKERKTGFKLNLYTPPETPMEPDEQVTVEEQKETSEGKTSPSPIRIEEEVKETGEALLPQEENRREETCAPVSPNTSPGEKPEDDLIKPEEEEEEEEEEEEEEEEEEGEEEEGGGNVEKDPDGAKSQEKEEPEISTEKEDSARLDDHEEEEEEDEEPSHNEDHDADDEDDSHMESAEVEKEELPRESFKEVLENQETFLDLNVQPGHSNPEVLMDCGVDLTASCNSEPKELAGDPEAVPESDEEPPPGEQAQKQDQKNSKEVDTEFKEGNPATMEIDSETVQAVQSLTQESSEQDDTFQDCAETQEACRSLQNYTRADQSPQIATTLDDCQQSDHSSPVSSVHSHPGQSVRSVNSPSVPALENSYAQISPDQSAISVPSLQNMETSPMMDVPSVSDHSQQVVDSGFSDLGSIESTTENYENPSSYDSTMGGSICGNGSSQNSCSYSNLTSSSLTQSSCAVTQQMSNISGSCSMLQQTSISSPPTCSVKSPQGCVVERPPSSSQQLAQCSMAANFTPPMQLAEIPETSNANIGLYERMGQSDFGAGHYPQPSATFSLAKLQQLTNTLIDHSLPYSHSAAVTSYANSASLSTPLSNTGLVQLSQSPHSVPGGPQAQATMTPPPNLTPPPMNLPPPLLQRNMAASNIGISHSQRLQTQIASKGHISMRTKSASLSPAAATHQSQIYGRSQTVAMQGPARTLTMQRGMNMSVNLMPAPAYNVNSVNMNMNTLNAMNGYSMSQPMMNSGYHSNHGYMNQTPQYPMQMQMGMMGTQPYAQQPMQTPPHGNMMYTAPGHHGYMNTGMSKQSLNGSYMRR

compound: CN[C@@H]1C[C@H]2O[C@@](C)([C@@H]1OC)n1c3ccccc3c3c4c(c5c6ccccc6n2c5c31)C(=O)NC4 [staurosporine]; test: log2 fold change of tryptic peptide abundance, ligand vs vehicle (limited proteolysis) (log2 ratio); higher = more trypsin-susceptible (destabilized); conditions: ligand concentration: 20 uM; sample: K562 cleared lysate; digestion: 4 min, 22 C (HT-PELSA RT4min, Orbitrap Astral)

Row | Target | log2 fold change
1 | TMEM263 (peptide sequence: VTGGIFSVTK, peptide start residue: 38) (UniProt Q8WUH6) | 0.368
2 | JADE3 (peptide sequence: LLASLSHSR, peptide start residue: 605) (UniProt Q92613) | 0.393
3 | BCL7C (peptide sequence: DPGGITAGSTDEPPMLTK, peptide start residue: 148) (UniProt Q8WUZ0) | 0.195
4 | TBC1D22A (peptide sequence: NDEVHQDTYR, peptide start residue: 269) (UniProt Q8WUA7) | 0.178
5 | UniProt Q8TF32 (peptide sequence: DSFQQVILR, peptide start residue: 124) | -0.125
6 | KAT6B (peptide sequence: ERKTGFK, peptide start residue: 1264) (UniProt Q8WYB5) | 0.653
